Source: patent US20250027073A1
Results are given in words; binding and its absence hold for the method and conditions named. Some results given as binding are weak or reduced against the parent protein; the word gives no strength.

Protein sequences, listed by entry. Tags and fused reporters are not part of them. Lines headed by an entry give the natural chain unless they say otherwise; changes in a name come on top. Residues count along the entry.
UniProt P25942, residues 21-277: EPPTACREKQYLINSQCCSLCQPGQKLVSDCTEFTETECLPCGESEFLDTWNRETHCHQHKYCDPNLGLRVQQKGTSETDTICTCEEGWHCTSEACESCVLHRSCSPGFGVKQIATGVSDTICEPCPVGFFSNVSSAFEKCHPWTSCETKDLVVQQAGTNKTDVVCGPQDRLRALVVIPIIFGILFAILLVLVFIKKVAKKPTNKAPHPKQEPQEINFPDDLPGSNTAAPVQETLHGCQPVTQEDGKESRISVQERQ
UniProt P27548: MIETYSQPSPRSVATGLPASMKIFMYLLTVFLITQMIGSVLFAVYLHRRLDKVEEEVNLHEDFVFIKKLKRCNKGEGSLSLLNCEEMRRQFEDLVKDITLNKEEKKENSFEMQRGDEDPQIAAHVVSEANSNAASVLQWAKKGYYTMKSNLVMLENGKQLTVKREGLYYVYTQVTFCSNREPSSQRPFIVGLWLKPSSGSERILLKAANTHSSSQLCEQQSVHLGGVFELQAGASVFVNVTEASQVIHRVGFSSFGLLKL

Target: CD40 (UniProt P25942)
Experiment: flow cytometry; GFP viruses displaying CD40L on CD40 expressing Raji B cells

Q: How did the binding turn out when “wild type CD40 ligand (CD40L), displayed on the lentiviral surface (from UniProt P27548 1-260)” was run?
A: binds
